Article PMC6038584
Results are given in words; binding and its absence hold for the method and conditions named. Binding seen in cells or lysates may run through a third protein. Some entries that bind do so weakly or less than the wild type.

The chains behind the UniProt entries cited, without tags or fusion partners.
UniProt A2AGL3: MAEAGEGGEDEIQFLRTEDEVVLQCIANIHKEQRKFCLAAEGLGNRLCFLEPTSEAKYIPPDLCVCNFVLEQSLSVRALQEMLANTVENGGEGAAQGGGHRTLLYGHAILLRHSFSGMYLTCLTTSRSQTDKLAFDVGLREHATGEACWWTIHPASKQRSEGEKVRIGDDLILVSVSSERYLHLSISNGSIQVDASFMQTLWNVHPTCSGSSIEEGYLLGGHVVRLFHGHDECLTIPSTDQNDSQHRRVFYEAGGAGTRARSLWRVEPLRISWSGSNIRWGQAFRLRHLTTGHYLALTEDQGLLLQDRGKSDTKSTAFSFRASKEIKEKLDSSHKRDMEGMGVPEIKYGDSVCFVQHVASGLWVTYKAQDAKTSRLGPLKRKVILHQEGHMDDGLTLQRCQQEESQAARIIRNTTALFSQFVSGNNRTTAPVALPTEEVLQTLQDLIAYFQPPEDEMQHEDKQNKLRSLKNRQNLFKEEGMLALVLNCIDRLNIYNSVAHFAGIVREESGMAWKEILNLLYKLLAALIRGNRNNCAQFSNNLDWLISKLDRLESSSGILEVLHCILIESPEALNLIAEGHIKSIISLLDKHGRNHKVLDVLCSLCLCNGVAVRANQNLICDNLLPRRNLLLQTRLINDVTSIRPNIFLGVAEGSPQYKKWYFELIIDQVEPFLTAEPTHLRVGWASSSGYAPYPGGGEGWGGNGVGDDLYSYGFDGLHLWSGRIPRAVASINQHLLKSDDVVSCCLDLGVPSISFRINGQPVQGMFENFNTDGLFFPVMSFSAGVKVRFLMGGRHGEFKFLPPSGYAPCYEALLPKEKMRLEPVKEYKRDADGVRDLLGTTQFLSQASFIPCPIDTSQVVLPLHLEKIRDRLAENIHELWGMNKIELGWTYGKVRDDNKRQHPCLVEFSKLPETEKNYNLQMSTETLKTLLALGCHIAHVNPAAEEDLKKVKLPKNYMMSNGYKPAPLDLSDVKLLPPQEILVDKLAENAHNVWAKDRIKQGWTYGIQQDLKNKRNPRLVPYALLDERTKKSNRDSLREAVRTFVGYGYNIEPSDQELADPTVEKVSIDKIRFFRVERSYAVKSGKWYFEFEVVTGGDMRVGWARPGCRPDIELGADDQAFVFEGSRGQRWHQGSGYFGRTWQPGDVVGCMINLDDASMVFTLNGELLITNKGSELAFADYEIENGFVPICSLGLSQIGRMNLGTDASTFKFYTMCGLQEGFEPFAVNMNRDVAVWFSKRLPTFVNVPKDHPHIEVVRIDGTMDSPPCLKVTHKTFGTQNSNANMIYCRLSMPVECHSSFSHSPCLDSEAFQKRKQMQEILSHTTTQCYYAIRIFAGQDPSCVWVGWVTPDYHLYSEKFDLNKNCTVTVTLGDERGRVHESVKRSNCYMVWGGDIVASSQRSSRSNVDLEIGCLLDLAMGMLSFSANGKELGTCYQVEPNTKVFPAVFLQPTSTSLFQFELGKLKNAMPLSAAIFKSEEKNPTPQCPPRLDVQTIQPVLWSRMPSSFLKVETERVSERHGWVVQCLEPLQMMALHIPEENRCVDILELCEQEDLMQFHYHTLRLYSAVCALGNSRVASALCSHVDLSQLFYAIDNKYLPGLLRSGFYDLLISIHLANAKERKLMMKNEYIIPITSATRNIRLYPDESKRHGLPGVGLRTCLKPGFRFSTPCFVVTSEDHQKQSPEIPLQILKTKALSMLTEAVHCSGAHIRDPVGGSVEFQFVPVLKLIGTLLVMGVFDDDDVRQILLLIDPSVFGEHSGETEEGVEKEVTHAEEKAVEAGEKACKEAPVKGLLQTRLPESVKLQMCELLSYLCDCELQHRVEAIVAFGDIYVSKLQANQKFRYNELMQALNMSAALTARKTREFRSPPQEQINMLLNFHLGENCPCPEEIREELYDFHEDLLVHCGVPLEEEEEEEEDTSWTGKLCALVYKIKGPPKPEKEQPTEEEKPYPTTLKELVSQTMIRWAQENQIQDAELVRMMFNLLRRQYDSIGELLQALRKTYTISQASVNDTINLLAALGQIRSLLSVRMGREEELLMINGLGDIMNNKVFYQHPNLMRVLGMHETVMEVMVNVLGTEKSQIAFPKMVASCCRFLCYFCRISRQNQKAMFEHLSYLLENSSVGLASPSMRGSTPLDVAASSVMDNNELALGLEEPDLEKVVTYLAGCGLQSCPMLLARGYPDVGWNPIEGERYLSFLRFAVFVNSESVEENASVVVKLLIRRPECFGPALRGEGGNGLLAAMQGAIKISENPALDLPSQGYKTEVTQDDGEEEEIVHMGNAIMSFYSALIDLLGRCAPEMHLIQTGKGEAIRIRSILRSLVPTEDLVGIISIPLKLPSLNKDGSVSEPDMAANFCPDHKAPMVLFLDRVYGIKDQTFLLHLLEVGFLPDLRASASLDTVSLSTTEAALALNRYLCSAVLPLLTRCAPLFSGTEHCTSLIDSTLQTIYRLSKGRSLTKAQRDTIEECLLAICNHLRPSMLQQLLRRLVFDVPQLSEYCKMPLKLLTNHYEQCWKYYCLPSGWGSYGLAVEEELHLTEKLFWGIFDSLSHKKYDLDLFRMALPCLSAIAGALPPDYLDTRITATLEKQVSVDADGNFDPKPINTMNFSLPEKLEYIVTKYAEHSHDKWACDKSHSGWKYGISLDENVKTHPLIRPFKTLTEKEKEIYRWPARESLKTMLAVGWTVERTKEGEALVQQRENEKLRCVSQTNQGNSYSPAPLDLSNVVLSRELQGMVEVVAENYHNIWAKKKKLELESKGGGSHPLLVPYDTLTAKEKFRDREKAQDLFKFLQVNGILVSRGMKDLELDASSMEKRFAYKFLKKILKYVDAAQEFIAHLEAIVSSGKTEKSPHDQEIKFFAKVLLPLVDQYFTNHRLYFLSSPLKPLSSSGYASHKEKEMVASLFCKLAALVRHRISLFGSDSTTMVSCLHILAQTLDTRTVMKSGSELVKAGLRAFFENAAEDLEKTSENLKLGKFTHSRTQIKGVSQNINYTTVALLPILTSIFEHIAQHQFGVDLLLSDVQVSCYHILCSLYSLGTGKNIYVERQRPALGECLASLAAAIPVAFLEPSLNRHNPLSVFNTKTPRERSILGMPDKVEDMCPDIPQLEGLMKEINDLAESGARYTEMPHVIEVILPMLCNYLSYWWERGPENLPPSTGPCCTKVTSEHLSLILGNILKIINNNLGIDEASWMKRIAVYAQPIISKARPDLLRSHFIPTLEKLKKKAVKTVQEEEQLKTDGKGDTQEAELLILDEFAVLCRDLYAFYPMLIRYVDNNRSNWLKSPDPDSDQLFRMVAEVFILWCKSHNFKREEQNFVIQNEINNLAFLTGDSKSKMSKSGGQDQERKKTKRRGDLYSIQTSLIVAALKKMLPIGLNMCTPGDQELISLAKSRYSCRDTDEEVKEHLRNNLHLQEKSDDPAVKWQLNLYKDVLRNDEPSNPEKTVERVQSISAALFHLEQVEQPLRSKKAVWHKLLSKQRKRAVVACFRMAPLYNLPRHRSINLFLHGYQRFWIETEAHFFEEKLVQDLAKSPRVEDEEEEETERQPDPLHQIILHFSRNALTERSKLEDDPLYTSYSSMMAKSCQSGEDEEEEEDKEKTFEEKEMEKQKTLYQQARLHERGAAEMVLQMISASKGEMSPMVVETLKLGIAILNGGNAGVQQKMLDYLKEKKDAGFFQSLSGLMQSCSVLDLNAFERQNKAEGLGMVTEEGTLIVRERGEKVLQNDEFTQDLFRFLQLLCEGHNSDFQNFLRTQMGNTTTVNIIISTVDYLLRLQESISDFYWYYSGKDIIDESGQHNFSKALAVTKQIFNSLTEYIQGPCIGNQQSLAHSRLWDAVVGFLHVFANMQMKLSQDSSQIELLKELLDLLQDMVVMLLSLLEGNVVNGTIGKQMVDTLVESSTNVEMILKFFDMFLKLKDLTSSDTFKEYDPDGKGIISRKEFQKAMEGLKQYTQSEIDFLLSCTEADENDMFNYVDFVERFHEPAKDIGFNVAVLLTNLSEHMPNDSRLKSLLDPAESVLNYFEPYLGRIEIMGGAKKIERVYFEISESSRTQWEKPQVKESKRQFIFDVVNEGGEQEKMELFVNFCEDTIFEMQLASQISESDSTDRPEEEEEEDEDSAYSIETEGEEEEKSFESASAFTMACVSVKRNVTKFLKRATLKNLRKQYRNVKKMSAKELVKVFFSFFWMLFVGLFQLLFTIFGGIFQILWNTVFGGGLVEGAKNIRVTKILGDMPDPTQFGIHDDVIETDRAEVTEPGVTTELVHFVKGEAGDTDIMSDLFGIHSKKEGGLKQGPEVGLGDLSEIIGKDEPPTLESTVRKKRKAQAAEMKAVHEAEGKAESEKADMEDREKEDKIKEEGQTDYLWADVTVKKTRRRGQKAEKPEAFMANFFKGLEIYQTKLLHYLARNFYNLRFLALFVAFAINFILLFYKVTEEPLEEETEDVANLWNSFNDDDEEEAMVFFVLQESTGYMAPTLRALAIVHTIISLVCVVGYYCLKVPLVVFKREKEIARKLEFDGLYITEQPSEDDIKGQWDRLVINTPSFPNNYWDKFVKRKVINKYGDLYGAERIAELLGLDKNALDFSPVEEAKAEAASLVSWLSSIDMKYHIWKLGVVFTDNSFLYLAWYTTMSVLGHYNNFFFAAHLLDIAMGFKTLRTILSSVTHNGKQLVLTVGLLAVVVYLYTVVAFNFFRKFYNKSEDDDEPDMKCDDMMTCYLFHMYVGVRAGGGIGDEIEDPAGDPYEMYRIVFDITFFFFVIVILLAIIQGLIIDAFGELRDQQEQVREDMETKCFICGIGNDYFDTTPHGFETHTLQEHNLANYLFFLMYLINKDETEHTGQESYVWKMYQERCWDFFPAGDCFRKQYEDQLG
UniProt Q9Z2I2: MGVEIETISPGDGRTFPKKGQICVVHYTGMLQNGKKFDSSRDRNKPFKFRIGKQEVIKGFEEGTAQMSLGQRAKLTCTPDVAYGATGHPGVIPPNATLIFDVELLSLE

Target: ryanodine receptor 3 (mouse (endogenous in HT-22)) (UniProt A2AGL3)
Assay: co-IP; HT-22 cell lysate (Triton X-100, 100 mmol/l NaCl, 50 mmol/l Tris HCl, 10 mmol/l EDTA); antibody against RyR with protein-G agarose, 12 hours; immunoblot for FKBP12.6; cells control, hypoxia-reoxygenation (H/R), or H/R after propofol pretreatment (different concentrations, 2 hr)

binding: binds
Substance: FK506-binding protein 12.6 (from UniProt Q9Z2I2 1-108)
